The source of these data is patent publication US4933268A, “Silver halide photographic material having at least one dyed hydrophilic colloid layer” (Fuji Photo Film Co., Ltd., priority 1987, dated 1990).

A short description of data set [1]: Fixing ratio of dye in mordant-containing gelatin layer after dipping in pH 7.0 buffer (Example 3). The class given is physicochemical. To be noted: with mordant; dipped in buffer pH 7.0 for 10 minutes at 25° C.
The nature of data set [2]: Decoloring ratio of dye in mordant-containing gelatin layer after dipping in developer (Example 3). The format is physicochemical. To be noted: with mordant; developer pH 10.20, 25 seconds at 35° C., washed 20 seconds.
Data set [3] can be described thus: Decoloring ratio of dye in gelatin layer after dipping in developer (Example 1). To be noted: no mordant; dipped in developer one minute at 30° C., washed 10 seconds. The class given is physicochemical.
Data set [4] in a line: Fixing ratio of dye in gelatin layer after dipping in distilled water (Example 1). To be noted: no mordant; dipped in distilled water of 50° C. for 30 seconds; from optical densities at absorption maximum. The format is physicochemical.
A short description of data set [5]: X-ray photographic material, quick processing: relative sensitivity (Example 5). To be noted: quick process, dry to dry 48 sec.; coated amount B 17.5, C 14.2, I-9 17.8, I-8 18.4, I-15 18.4 mg/m^2.
A short description of data set [6]: X-ray photographic material with dyed subbing layers: relative sensitivity and MTF (Example 4). To be noted: Mordant II-16; for Relative Sensitivity: coated amount (a) 15, (b) 17.5, (c) 14.2, I-9 17.8, I-8 18.4, I-15 18.3 mg/m^2, no dye = 100; for MTF in the Combination with G-4 Screen: same coated amounts as E7, 2.0 cycles/mm, optical density 1.0.
A short description of data set [7]: X-ray photographic material with formula (III) mordants: relative sensitivity and MTF (Example 6). To be noted: for Relative Sensitivity: Sample 1 without dye = 100.
Where [8] appears, read: Mordant III-1, (b) 17.5, I-8 18.4 mg/m^2.
[9] abbreviates: Mordant III-15, (a) 15, I-8 18.4 mg/m^2.
Setting [10] is: Mordant III-24, (c) 14.2, I-8 18.4 mg/m^2.

As for `CC(C)CNC(=O)C1=NN(Cc2ccccc2S(=O)(=O)O)C(=O)C1=CC=Cc1c(C(=O)NCC(C)C)nn(Cc2ccccc2S(=O)(=O)O)c1O` [Dye 25], the “Fixing Ratio (%)” value in data set [1] is given as 97%. In addition, in data set [2], the “Decoloring Ratio (%)” value worked out at 95%.
Regarding `CCCCCC(=O)NC1=NN(c2ccc(S(=O)(=O)O)cc2)C(=O)C1=CC=CC=Cc1c(NC(=O)CCCCC)nn(-c2ccc(S(=O)(=O)O)cc2)c1O` [Dye 29], the “Decoloring Ratio” value in data set [3] was found to be 90. The “Fixing Ratio” value in data set [4] turned out to be 91. The “Fixing Ratio (%)” value in data set [1] worked out at 97%. For the same compound, in data set [2], the “Decoloring Ratio (%)” value was 96%.
Take `CCCCCCCC(=O)NC1=NN(c2cc(S(=O)(=O)O)ccc2S(=O)(=O)O)C(=O)C1=CC=Cc1c(NC(=O)CCCCCCC)nn(-c2cc(S(=O)(=O)O)ccc2S(=O)(=O)O)c1O` [Comparison dye F, reference compound]: the “Decoloring Ratio” value in data set [3] came to 75. Also, the “Fixing Ratio” value in data set [4] is on record as 93.
The matching figures for `CCCCCCNC(=O)C1=NN(c2ccc(S(=O)(=O)O)cc2)C(=O)C1=CC=CC=Cc1c(C(=O)NCCCCCC)nn(-c2ccc(S(=O)(=O)O)cc2)c1O` [Dye 31]: 87 and 97.
Turning to `CCCCC(=O)NC1=NN(c2ccc(S(=O)(=O)O)cc2)C(=O)C1=Cc1c(NC(=O)CCCC)nn(-c2ccc(S(=O)(=O)O)cc2)c1O` [Dye 1], the “Fixing Ratio (%)” value in data set [1] turned out to be 92%. In addition, the “Decoloring Ratio (%)” value in data set [2] is 90%.
With `CCCNC(=O)C1=NN(c2ccc(S(=O)(=O)O)cc2)C(=O)C1=CC=CC=Cc1c(C(=O)NCCC)nn(-c2ccc(S(=O)(=O)O)cc2)c1O` [Comparison Dye H, reference compound], the “Fixing Ratio (%)” value in data set [1] is 98%. Moreover, the “Decoloring Ratio (%)” value in data set [2] is recorded as 80%.
Take `CCCCNC(=O)C1=NN(c2ccc(S(=O)(=O)O)cc2)C(=O)C1=CC=Cc1c(C(=O)NCCCC)nn(-c2ccc(S(=O)(=O)O)cc2)c1O` [Dye 10]: in data set [3], the “Decoloring Ratio” value worked out at 90. Also, the “Fixing Ratio” value in data set [4] turned out to be 92.
As for `O=C1C(=CC=Cc2c(-c3ccccc3)nn(-c3ccc(S(=O)(=O)O)cc3)c2O)C(c2ccccc2)=NN1c1ccc(S(=O)(=O)O)cc1` [Comparison dye M, reference compound], in data set [1], the “Fixing Ratio (%)” value was found to be 98%. In addition, in data set [2], the “Decoloring Ratio (%)” value was 20%.
As to `CC(C)CC(=O)NC1=NN(c2ccc(S(=O)(=O)O)cc2)C(=O)C1=CC=Cc1c(NC(=O)CC(C)C)nn(-c2ccc(S(=O)(=O)O)cc2)c1O` [Dye 15], the “Decoloring Ratio” value in data set [3] came out at 92. Further, in data set [4], the “Fixing Ratio” value came to 91. For the same compound, in data set [5], the “Relative Sensitivity” value is reported as 90. In addition, in data set [6], the “Relative Sensitivity” value is listed as 91 and the “MTF in the Combination with G-4 Screen” value came out at 0.55.
Take `CCCNC(=O)C1=NN(c2ccc(Oc3ccccc3)c(S(=O)(=O)O)c2)C(=O)C1=CC=CC=Cc1c(C(=O)NCCC)nn(-c2ccc(Oc3ccccc3)c(S(=O)(=O)O)c2)c1O` [Comparison dye B, reference compound]: the “Decoloring Ratio” value in data set [3] stood at 88. For the same compound, the “Fixing Ratio” value in data set [4] was 50.
With `CNC(=O)C1=NN(c2ccc(S(=O)(=O)O)cc2)C(=O)C1=CC=CC=Cc1c(C(=O)NC)nn(-c2ccc(S(=O)(=O)O)cc2)c1O` [Comparison Dye G, reference compound], the “Fixing Ratio (%)” value in data set [1] is 83%. Besides, in data set [2], the “Decoloring Ratio (%)” value was 97%.
The matching figures for `CC1=NN(c2ccc(S(=O)(=O)O)cc2)C(=O)C1=CC=Cc1c(C)nn(-c2ccc(S(=O)(=O)O)cc2)c1O` [Comparison dye L, reference compound]: 85% and 55%.
Turning to `CNC(=O)C1=NN(c2cccc(S(=O)(=O)O)c2)C(=O)C1=CC=Cc1c(C(=O)NC)nn(-c2cccc(S(=O)(=O)O)c2)c1O` [Comparison dye A, reference compound], the “Decoloring Ratio” value in data set [3] turned out to be 93. Also, the “Fixing Ratio” value in data set [4] was 18.
Regarding `CC(C)CCNC(=O)C1=NN(CCCS(=O)(=O)O)C(=O)C1=CC=Cc1c(C(=O)NCCC(C)C)nn(CCCS(=O)(=O)O)c1O` [Dye 9], the “Relative Sensitivity” value in data set [5] is on record as 91. In data set [6], the “Relative Sensitivity” value came out at 91 and the “MTF in the Combination with G-4 Screen” value was determined as 0.55.
On to `CC(=O)NC1=NN(c2ccc(S(=O)(=O)O)cc2)C(=O)C1=CC=Cc1c(NC(C)=O)nn(-c2ccc(S(=O)(=O)O)cc2)c1O` [Comparison dye E, reference compound], for which the “Decoloring Ratio” value in data set [3] was 94. Further, the “Fixing Ratio” value in data set [4] is recorded as 20.
Consider `O=C(CCCCCCCO)NC1=NN(c2cccc(S(=O)(=O)O)c2)C(=O)C1=Cc1c(NC(=O)CCCCCCCO)nn(-c2cccc(S(=O)(=O)O)c2)c1O` [Dye 12], for which the “Decoloring Ratio” value in data set [3] is 89. For the same compound, in data set [4], the “Fixing Ratio” value is given as 88.
Consider `CCC(C)NC(=O)C1=NN(c2ccc(S(=O)(=O)O)cc2)C(=O)C1=Cc1c(C(=O)NC(C)CC)nn(-c2ccc(S(=O)(=O)O)cc2)c1O` (stereo not drawn) [Dye 11], for which, in data set [1], the “Fixing Ratio (%)” value was 92%. In data set [2], the “Decoloring Ratio (%)” value amounted to 92%.
Turning to `O=C(NCCS(=O)(=O)O)C1=NN(c2ccc(S(=O)(=O)O)cc2)C(=O)C1=Cc1c(C(=O)NCCS(=O)(=O)O)nn(-c2ccc(S(=O)(=O)O)cc2)c1O` [Comparison dye D, reference compound], in data set [3], the “Decoloring Ratio” value worked out at 98. The “Fixing Ratio” value in data set [4] is recorded as 15.
As for `O=C(Nc1ccccc1)C1=NN(c2ccc(S(=O)(=O)O)cc2)C(=O)C1=CC=Cc1c(C(=O)Nc2ccccc2)nn(-c2ccc(S(=O)(=O)O)cc2)c1O` [Comparison dye C, reference compound], in data set [3], the “Decoloring Ratio” value is on record as 72. Moreover, in data set [4], the “Fixing Ratio” value was determined as 92.
`CCCCNC(=O)C1=NN(c2ccc(S(=O)(=O)O)cc2)C(=O)C1=CC=CC=Cc1c(C(=O)NCCCC)nn(-c2ccc(S(=O)(=O)O)cc2)c1O` [Dye 43]: the “Fixing Ratio (%)” value in data set [1] was found to be 95%. For the same compound, the “Decoloring Ratio (%)” value in data set [2] was determined as 97%.
The like results for `CCOC(=O)C1=NN(CCS(=O)(=O)O)C(=O)C1=CC=Cc1c(C(=O)OCC)nn(CCS(=O)(=O)O)c1O` [Comparison dye J, reference compound] were, in that order, 30% and 9%.
The like results for `O=C(O)C1=NN(S(=O)(=O)O)C(=O)C1=CC=Cc1c(C(=O)O)nn(S(=O)(=O)O)c1O` [Comparison dye K, reference compound] were, in that order, 75% and 65%.
Take `CCCCNC(=O)C1=NN(Cc2ccccc2S(=O)(=O)O)C(=O)C1=CC=Cc1c(C(=O)NCCCC)nn(Cc2ccccc2S(=O)(=O)O)c1O` [Dye 8]: the “Decoloring Ratio” value in data set [3] stood at 93. The “Fixing Ratio” value in data set [4] came out at 90. In addition, the “Fixing Ratio (%)” value in data set [1] is 97%. Besides, the “Decoloring Ratio (%)” value in data set [2] is listed as 95%. For the same compound, the “Relative Sensitivity” value in data set [5] worked out at 90; in data set [7] (setting [8]), 89; in data set [7] (setting [9]) it was 88; in data set [7] (setting [10]), 91; in data set [6], 91. In addition, the “MTF in the Combination with G-4 Screen” value in data set [7] (setting [8]) was found to be 0.54; in data set [7] (setting [9]) it was 0.54; in data set [7] (setting [10]) it was 0.54; in data set [6], 0.55.
